Laboratory results from the supplement of paper PMC10849652.
This is one part of the list.

Chains of the proteins cited; added tags and fusions are not shown. Lines headed by an entry give the natural chain unless they say otherwise; changes in a name come on top.
UniProt O95298, whole entry, looked up: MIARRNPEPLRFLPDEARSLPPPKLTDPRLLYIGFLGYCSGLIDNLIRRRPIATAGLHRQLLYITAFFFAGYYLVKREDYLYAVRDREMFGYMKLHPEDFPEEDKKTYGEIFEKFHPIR
UniProt Q9GZT8: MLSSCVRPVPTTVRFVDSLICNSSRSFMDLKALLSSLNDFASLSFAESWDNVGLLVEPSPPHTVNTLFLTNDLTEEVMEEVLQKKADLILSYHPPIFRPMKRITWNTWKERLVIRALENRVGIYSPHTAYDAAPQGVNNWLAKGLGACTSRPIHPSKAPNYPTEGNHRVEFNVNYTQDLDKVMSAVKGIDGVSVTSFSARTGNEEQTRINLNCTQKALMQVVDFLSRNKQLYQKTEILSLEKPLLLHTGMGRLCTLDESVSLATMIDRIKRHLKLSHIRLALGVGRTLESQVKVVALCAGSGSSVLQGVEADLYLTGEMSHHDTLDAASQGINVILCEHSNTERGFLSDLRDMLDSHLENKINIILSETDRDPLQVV
UniProt P48681: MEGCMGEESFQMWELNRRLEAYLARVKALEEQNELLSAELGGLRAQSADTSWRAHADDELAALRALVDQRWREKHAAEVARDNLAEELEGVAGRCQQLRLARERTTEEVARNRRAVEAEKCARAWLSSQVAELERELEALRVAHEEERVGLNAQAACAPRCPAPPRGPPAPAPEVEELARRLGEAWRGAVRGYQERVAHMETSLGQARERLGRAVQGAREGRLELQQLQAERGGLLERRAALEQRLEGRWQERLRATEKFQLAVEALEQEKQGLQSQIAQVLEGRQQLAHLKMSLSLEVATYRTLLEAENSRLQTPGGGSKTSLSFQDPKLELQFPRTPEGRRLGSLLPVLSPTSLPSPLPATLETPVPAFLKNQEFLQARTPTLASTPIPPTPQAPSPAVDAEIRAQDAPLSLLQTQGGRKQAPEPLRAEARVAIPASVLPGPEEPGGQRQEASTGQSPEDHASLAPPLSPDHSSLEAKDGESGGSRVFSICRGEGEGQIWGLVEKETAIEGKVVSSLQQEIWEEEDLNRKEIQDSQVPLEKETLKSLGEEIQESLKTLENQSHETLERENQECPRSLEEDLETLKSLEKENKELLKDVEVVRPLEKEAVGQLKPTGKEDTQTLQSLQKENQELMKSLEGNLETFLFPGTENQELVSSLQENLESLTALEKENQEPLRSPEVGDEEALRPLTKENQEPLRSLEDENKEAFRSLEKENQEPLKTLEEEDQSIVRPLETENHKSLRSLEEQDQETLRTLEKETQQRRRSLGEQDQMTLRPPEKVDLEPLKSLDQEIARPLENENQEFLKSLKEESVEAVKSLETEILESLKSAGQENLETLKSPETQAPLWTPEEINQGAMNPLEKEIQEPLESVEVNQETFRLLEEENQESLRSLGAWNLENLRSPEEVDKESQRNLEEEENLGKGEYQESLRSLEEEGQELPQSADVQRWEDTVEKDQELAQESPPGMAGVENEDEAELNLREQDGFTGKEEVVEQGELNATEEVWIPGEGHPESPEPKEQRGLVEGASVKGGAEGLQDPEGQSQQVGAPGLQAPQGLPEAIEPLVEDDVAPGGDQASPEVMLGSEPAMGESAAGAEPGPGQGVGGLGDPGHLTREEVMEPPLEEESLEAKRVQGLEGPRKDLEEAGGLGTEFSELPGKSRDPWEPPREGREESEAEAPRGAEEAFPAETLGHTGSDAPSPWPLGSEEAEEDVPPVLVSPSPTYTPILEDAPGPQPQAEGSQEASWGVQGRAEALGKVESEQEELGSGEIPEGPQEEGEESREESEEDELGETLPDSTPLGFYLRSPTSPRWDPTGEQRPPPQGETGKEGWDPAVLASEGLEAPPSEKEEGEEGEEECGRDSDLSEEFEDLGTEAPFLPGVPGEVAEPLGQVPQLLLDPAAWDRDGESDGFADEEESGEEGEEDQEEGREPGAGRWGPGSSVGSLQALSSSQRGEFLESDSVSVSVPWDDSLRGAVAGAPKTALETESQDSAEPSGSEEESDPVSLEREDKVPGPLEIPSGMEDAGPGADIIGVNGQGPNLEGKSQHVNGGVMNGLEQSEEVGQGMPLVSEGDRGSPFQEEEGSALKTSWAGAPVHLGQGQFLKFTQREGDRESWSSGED
UniProt Q8NHV4, whole entry, looked up: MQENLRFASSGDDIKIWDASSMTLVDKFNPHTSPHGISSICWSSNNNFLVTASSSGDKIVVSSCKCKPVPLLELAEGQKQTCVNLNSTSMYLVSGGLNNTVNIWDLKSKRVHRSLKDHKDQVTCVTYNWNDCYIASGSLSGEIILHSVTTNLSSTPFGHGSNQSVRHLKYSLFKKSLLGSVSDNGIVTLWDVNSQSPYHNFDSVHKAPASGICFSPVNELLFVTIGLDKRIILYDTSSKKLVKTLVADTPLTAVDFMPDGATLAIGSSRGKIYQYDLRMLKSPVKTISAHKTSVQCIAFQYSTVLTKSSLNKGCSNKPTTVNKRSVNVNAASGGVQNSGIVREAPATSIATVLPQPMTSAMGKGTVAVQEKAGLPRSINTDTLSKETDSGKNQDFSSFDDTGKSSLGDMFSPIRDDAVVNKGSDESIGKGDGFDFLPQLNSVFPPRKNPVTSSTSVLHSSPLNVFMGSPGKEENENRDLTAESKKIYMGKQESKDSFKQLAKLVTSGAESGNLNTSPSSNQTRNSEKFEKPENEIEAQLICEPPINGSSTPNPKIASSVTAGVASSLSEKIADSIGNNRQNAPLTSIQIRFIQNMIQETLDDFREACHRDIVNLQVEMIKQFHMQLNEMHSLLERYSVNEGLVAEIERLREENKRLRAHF
UniProt Q86Y39, whole entry, looked up: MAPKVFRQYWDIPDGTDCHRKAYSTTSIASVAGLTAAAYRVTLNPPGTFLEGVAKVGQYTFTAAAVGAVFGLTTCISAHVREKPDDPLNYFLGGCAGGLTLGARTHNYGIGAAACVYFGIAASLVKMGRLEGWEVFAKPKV
UniProt O00221: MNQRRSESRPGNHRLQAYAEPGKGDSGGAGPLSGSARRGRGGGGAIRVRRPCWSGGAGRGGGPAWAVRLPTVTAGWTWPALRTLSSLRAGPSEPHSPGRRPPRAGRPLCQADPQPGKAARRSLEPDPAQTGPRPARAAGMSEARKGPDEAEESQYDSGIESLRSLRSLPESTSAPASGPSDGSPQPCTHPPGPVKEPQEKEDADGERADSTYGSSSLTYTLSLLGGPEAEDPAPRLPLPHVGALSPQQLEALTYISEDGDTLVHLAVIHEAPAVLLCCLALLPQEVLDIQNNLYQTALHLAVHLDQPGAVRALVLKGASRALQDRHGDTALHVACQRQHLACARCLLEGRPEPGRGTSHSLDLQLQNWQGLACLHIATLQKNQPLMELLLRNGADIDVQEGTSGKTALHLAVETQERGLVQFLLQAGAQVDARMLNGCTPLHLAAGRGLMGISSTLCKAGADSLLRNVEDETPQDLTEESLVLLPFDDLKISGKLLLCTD
UniProt O95168, whole entry, looked up: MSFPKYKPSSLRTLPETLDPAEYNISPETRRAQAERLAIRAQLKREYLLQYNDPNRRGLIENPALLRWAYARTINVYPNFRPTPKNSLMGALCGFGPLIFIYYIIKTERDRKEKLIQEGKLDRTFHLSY
UniProt O43676, whole entry, looked up: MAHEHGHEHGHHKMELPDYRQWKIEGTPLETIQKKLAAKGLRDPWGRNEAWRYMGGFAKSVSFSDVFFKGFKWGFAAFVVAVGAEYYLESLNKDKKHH
UniProt Q9GZM8: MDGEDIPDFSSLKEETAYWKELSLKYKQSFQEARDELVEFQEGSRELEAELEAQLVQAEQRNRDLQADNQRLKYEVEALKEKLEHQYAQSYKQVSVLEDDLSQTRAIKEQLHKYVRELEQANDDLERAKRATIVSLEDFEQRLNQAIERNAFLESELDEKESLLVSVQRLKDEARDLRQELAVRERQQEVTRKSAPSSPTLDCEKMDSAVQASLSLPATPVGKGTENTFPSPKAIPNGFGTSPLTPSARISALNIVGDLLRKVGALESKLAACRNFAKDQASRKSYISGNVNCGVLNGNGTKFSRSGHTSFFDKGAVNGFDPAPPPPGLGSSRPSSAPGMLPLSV
UniProt P18615, whole entry, looked up: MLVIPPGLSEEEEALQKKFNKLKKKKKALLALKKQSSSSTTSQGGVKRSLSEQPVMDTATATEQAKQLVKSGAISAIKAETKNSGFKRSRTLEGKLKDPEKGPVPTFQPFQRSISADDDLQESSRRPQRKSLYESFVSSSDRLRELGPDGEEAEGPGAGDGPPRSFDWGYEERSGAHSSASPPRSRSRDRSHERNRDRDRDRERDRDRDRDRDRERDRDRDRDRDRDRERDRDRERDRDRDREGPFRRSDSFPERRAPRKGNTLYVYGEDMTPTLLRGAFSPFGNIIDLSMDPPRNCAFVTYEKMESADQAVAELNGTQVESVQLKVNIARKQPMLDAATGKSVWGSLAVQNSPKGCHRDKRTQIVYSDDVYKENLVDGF
UniProt Q9P0J0, whole entry, looked up: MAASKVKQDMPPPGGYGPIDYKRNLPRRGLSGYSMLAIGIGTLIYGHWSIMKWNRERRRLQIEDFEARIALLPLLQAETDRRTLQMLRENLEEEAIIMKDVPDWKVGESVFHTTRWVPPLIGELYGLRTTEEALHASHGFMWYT
UniProt Q9NX14, whole entry, looked up: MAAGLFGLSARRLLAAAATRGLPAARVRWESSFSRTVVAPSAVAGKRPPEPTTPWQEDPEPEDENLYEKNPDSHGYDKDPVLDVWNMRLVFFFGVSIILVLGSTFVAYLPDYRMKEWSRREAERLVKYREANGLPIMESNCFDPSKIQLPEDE
UniProt P17568, whole entry, looked up: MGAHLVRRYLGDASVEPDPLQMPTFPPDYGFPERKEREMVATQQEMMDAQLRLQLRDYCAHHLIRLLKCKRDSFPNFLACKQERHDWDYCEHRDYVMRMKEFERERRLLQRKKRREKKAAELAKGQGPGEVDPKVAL
UniProt O95139, whole entry, looked up: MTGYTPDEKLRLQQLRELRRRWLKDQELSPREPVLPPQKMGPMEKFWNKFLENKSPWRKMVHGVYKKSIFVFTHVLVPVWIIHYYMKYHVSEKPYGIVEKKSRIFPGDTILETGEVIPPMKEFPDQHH
UniProt O76041: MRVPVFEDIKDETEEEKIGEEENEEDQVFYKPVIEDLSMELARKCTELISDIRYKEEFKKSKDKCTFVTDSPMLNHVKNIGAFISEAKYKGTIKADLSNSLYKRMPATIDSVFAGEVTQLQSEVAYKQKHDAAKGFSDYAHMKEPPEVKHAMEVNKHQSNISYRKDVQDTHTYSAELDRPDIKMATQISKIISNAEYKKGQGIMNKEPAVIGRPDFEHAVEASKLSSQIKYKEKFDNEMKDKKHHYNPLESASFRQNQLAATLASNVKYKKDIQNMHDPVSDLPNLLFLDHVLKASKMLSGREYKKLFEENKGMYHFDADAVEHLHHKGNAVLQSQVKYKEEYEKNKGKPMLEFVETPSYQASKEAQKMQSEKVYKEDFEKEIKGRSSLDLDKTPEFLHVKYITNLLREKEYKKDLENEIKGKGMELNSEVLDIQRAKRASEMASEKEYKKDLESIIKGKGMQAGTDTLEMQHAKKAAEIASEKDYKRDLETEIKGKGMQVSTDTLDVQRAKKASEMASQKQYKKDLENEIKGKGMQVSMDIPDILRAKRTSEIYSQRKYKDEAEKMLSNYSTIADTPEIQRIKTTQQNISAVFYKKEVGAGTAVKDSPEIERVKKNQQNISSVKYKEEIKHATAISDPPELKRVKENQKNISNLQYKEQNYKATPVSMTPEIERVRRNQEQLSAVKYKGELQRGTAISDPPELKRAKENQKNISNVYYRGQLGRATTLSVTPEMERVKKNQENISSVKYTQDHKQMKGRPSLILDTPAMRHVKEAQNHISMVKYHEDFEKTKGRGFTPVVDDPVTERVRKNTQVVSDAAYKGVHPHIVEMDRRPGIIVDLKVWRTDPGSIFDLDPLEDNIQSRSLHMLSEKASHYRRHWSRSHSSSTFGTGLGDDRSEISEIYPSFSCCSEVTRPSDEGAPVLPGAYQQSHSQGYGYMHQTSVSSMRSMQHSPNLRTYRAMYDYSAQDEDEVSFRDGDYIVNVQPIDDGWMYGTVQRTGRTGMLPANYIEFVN
UniProt Q9UFN0: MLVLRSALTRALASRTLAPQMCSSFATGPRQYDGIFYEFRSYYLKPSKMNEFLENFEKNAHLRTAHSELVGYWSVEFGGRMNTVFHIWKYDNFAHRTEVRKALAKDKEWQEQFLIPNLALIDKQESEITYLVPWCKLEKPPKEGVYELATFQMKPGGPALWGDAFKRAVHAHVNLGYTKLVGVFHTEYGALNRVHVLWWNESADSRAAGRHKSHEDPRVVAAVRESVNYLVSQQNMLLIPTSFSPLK
UniProt P56556, whole entry, looked up: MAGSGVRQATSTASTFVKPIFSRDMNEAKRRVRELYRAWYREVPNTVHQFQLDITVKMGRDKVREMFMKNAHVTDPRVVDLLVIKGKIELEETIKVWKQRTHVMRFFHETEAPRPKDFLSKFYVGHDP
UniProt O95096: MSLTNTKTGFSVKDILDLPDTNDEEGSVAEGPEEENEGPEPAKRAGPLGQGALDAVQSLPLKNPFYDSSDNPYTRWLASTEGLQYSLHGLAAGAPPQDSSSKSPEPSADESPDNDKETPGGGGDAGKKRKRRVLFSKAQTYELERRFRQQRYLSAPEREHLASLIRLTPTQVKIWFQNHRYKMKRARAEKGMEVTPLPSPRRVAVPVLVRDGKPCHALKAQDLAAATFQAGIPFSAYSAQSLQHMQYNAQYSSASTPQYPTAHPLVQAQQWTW

Assays:
Experiment in all cases: log2 fold change, soluble protein after heating vs DMSO (PISA); higher = thermal stabilisation; K562 lysate, 10 uM; active = over 0.2 and 3.5 SD of the protein, either way, in both replicates (recomputed)
vemurafenib = compound: CCCS(=O)(=O)Nc1ccc(F)c(C(=O)c2c[nH]c3ncc(-c4ccc(Cl)cc4)cc23)c1F [vemurafenib]
In short: (§1)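 Pellets of K562 cells were dounce-homogenised in PBS pH 7.4 with 1 mM MgCl2, and the crude extract was held at 1 mg/mL protein for a 30 min treatment with 10 μM compound. Aliquots were heated for 3 min over 48°C-58°C and pooled before NP-40 was added to 0.5% at 4°C. The supernatant from 21,000xg for 90 min was quantified by TMTpro 16plex LC-MS/MS with channel sums equalised. Values are reported from duplicates as log-two fold change in thermal stability relative to solvent controls.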

[1] = compound: CCCS(=O)(=O)Nc1ccc(F)c(C(=O)c2c[nH]c3ncc(Cl)cc23)c1F
In short: as §1

barasertib = compound: CCN(CCCOc1ccc2c(Nc3cc(CC(=O)Nc4cccc(F)c4)[nH]n3)ncnc2c1)CCOP(=O)(O)O [barasertib]
In short: as §1

[2] = compound: CC[C@@H]1C(=O)N(C)c2cnc(Nc3ccc(C(=O)NC4CCN(C)CC4)cc3OC)nc2N1C1CCCC1
In short: as §1

volasertib = compound: CC[C@@H]1C(=O)N(C)c2cnc(Nc3ccc(C(=O)N[C@H]4CC[C@H](N5CCN(CC6CC6)CC5)CC4)cc3OC)nc2N1C(C)C [volasertib]
In short: as §1

[3] = compound: CCn1c(C(=O)N(C2CC2)C2CC2)cc2c3c(ncn3C)c(Nc3cc(C)n(C)n3)nc21
In short: as §1

[4] = compound: CCn1cc(-c2ccnc3[nH]c(-c4cccc(CN(C)C)c4)cc23)c(-c2ccc(NC(=O)N(C)C)cc2)n1
In short: as §1

[5] = compound: CN1CCC(CNc2ccc3ncc(-c4cccc(OC(F)(F)F)c4)n3n2)CC1
In short: as §1

saracatinib = compound: CN1CCN(CCOc2cc(OC3CCOCC3)c3c(Nc4c(Cl)ccc5c4OCO5)ncnc3c2)CC1 [saracatinib]
In short: as §1

sotrastaurin = compound: CN1CCN(c2nc(C3=C(c4c[nH]c5ccccc45)C(=O)NC3=O)c3ccccc3n2)CC1 [sotrastaurin]
In short: as §1

Measured: log2 fold change

NDUFC2 (UniProt O95298)
inactive: vemurafenib 0.038 | [1] 0.02 | barasertib 0.009 | [2] -0.003 | volasertib 0.017 | [3] 0.068 | [4] 0.076 | [5] -0.064 | saracatinib -0.019 | sotrastaurin -0.026

NDUFB10 (UniProt O96000)
inactive: vemurafenib -0.021 | [1] 0.046 | barasertib 0.017 | [2] 0.034 | volasertib 0.006 | [3] -0.009 | [4] 0.012 | [5] -0.04 | saracatinib -0.001 | sotrastaurin 0.002

NIF3L1 (UniProt Q9GZT8)
inactive: vemurafenib 0.001 | [1] -0.003 | barasertib -0.016 | [2] 0.047 | volasertib 0.029 | [3] -0.046 | [4] -0.048 | [5] 0.069 | saracatinib 0.016 | sotrastaurin -0.016

NF2 (UniProt P35240)
inactive: vemurafenib 0.016 | [1] 0.022 | barasertib -0.001 | [2] 0.103 | volasertib 0.016 | [3] -0.06 | [4] -0.1 | [5] 0.065 | saracatinib 0.003 | sotrastaurin 0.011

NES (UniProt P48681)
inactive: vemurafenib -0.021 | [1] 0.009 | barasertib 0.042 | [2] -0.017 | volasertib 0.021 | [3] -0.016 | [4] 0.037 | [5] 0.009 | saracatinib 0.044 | sotrastaurin -0.008

NEDD1 isoform 3 (UniProt Q8NHV4)
inactive: vemurafenib -0.02 | [1] 0.008 | barasertib 0.038 | [2] 0.071 | volasertib -0.002 | [3] 0.01 | [4] 0.02 | [5] 0.012 | saracatinib 0.051 | sotrastaurin 0.03

NDUFA11 (UniProt Q86Y39)
inactive: vemurafenib -0.067 | [1] 0.014 | barasertib 0.014 | [2] -0.076 | volasertib 0.042 | [3] 0.051 | [4] -0.021 | [5] 0.161 | saracatinib 0.014 | sotrastaurin 0.014

NFKBIE (UniProt O00221)
inactive: vemurafenib 0.046 | [1] 0.051 | barasertib 0.174 | [2] 0.081 | volasertib -0.106 | [3] -0.024 | [4] -0.07 | [5] -0.045 | saracatinib -0.123 | sotrastaurin -0.025

NDUFB4 (UniProt O95168)
inactive: vemurafenib -0.045 | [1] 0.022 | barasertib -0.18 | [2] 0.073 | volasertib -0.026 | [3] -0.006 | [4] 0.218 | [5] -0.228 | saracatinib 0.028 | sotrastaurin 0.003

NEU1 (UniProt Q99519)
inactive: vemurafenib 0.151 | [1] 0.026 | barasertib 0.053 | [2] -0.003 | volasertib -0.009 | [3] -0.054 | [4] -0.05 | [5] 0.068 | saracatinib 0.007 | sotrastaurin -0.01

NELFB isoform 2 (UniProt Q8WX92)
inactive: vemurafenib 0.01 | [1] -0.007 | barasertib -0.007 | [2] 0.021 | volasertib -0.018 | [3] 0.026 | [4] -0.01 | [5] -0.046 | saracatinib 0.025 | sotrastaurin -0.017

NELFCD (UniProt Q8IXH7)
inactive: vemurafenib 0.014 | [1] 0.037 | barasertib 0.047 | [2] 0.006 | volasertib -0.032 | [3] 0.02 | [4] 0.089 | [5] -0.049 | saracatinib -0.005 | sotrastaurin 0.012

NDUFB3 (UniProt O43676)
inactive: vemurafenib 0.001 | [1] -0.008 | barasertib -0.015 | [2] -0.026 | volasertib 0.026 | [3] 0.072 | [4] -0.014 | [5] 0.012 | saracatinib 0.002 | sotrastaurin 0.004

NDEL1 isoform 2 (UniProt Q9GZM8)
inactive: vemurafenib -0.088 | [1] 0.062 | barasertib -0.029 | [2] 0.112 | volasertib 0.019 | [3] -0.011 | [4] 0.145 | [5] -0.047 | saracatinib 0.02 | sotrastaurin 0.061

NFATC2 (UniProt Q13469)
inactive: vemurafenib -0.029 | [1] 0.032 | barasertib 0.011 | [2] 0.03 | volasertib -0.069 | [3] -0.006 | [4] 0.011 | [5] -0.002 | saracatinib 0.014 | sotrastaurin -0.016

NELFE (UniProt P18615)
inactive: vemurafenib -0.003 | [1] -0.002 | barasertib -0.018 | [2] 0.034 | volasertib 0.004 | [3] -0.021 | [4] 0 | [5] 0.001 | saracatinib 0.018 | sotrastaurin 0.014

Two records picked at random from the list so far:
NFATC2 (UniProt Q13469)
inactive: vemurafenib -0.029 | [1] 0.032 | barasertib 0.011 | [2] 0.03 | volasertib -0.069 | [3] -0.006 | [4] 0.011 | [5] -0.002 | saracatinib 0.014 | sotrastaurin -0.016

NES (UniProt P48681)
inactive: vemurafenib -0.021 | [1] 0.009 | barasertib 0.042 | [2] -0.017 | volasertib 0.021 | [3] -0.016 | [4] 0.037 | [5] 0.009 | saracatinib 0.044 | sotrastaurin -0.008

(next part)

NDUFA13 (UniProt Q9P0J0)
inactive: vemurafenib 0.004 | [1] 0.014 | barasertib 0.075 | [2] 0.015 | volasertib 0.014 | [3] -0.013 | [4] 0.005 | [5] -0.008 | saracatinib 0.003 | sotrastaurin -0.013

NEK1 isoform 3 (UniProt Q96PY6)
inactive: vemurafenib -0.058 | [1] -0.074 | barasertib 0.007 | [2] 0.018 | volasertib -0.21 | [3] -0.031 | [4] 0.042 | [5] -0.084 | saracatinib 0.041 | sotrastaurin 0.015

NDUFB11 isoform 2 (UniProt Q9NX14)
inactive: vemurafenib 0.022 | [1] 0.019 | barasertib 0.138 | [2] 0.016 | volasertib 0.038 | [3] 0.028 | [4] -0.024 | [5] -0.068 | saracatinib -0.026 | sotrastaurin -0.074

NDUFV3 isoform 2 (UniProt P56181)
inactive: vemurafenib -0.005 | [1] 0.004 | barasertib -0.036 | [2] 0.03 | volasertib 0.01 | [3] -0.045 | [4] -0.088 | [5] 0.021 | saracatinib -0.006 | sotrastaurin -0.027

NDUFB7 (UniProt P17568)
inactive: vemurafenib 0.02 | [1] 0.037 | barasertib 0.003 | [2] 0.048 | volasertib 0.019 | [3] -0.111 | [4] 0.29 | [5] -0.156 | saracatinib -0.103 | sotrastaurin 0.001

NDUFB6 (UniProt O95139)
inactive: vemurafenib 0.041 | [1] 0.002 | barasertib -0.003 | [2] 0.057 | volasertib 0.014 | [3] -0.04 | [4] -0.147 | [5] 0.101 | saracatinib 0.012 | sotrastaurin 0.041

NEBL isoform 2 (UniProt O76041)
inactive: vemurafenib 0.014 | [1] 0.009 | barasertib -0.078 | [2] 0.02 | volasertib 0.051 | [3] -0.041 | [4] -0.108 | [5] 0.084 | saracatinib 0.023 | sotrastaurin -0.039

NIPSNAP3A (UniProt Q9UFN0)
inactive: vemurafenib -0.005 | [1] 0.018 | barasertib -0.04 | [2] 0.043 | volasertib 0.019 | [3] -0.024 | [4] 0.324 | [5] -0.213 | saracatinib -0.002 | sotrastaurin 0.021

NDUFV3 (UniProt P56181)
inactive: vemurafenib 0.002 | [1] -0.008 | barasertib -0.049 | [2] -0.034 | volasertib 0.132 | [3] 0.025 | [4] -0.059 | [5] 0.032 | saracatinib 0.1 | sotrastaurin 0.075

NIFK (UniProt Q9BYG3)
inactive: vemurafenib 0.015 | [1] 0.036 | barasertib 0.033 | [2] 0.006 | volasertib -0.027 | [3] 0.009 | [4] 0.093 | [5] -0.045 | saracatinib 0.005 | sotrastaurin -0.018

NDUFA6 (UniProt P56556)
inactive: vemurafenib 0.065 | [1] 0.004 | barasertib 0.045 | [2] -0.064 | volasertib 0.063 | [3] -0.015 | [4] -0.103 | [5] -0.123 | saracatinib 0.019 | sotrastaurin 0.191

NIT1 (UniProt Q86X76)
inactive: vemurafenib -0.003 | [1] -0.004 | barasertib -0.005 | [2] 0.002 | volasertib -0.005 | [3] -0.044 | [4] -0.053 | [5] 0.043 | saracatinib 0.012 | sotrastaurin -0.031

NKX2-2 (UniProt O95096)
inactive: vemurafenib 0.169 | [1] 0.004 | barasertib 0.066 | [2] 0.189 | volasertib 0.028 | [3] -0.374 | [4] -0.534 | [5] 0.214 | sotrastaurin -0.072
